Measurements reported in PubChem BioAssay AID1259405 (NCATS, 2018).

Aim: 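Knock-downs that lift recombinant protein yield in hamster ovary cells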 (primary screen)
System: Chinese hamster CHO-K1 ovary cells with stable secreted eGFP expression
Reagents: single siRNA against mouse genes, 0.8 pmol siRNA per well (2 µl of 400 nM stock)
Time to read-out: 3 days
Measured: 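Percent of the per-plate non-targeting control median for intracellular GFP per well by laser scanning cytometry and for cell viability by ATP luminescence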
Reading the numbers: GFP, % of control: higher = more GFP per well, higher productivity; viability (ATP), % of control: higher = more viable cells (more ATP)
Call rule: 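a knock-down is called active if GFP reaches 120% or more of non-targeting control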
The whole screen tested about 50,000 reagents; this is an unselected part. Over the whole deposit, about 4,000 (8%) are marked active. 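Mouse siRNA library applied to hamster cells; one well for each siRNA.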 Reagents against one gene are numbered here.

| Gene | reagent | GFP, % of control | viability (ATP), % of control | call |
| --- | --- | --- | --- | --- |
| Hebp1 | 1 | 62.4 | 82.4 | inactive |
| Hebp1 | 2 | 89.6 | 68.6 | inactive |
| Hebp1 | 3 | 104 | 86.7 | inactive |
| Adam30 | 1 | 94.8 | 82.5 | inactive |
| Adam30 | 2 | 106 | 87 | inactive |
| Adam30 | 3 | 98.3 | 82.2 | inactive |
| Lmnb2 | 1 | 123 | 75.4 | active |
| Lmnb2 | 2 | 80.8 | 99.4 | inactive |
| Igha | 1 | 60.7 | 62.9 | inactive |
| Igha | 2 | 99.2 | 82.8 | inactive |
| Igha | 3 | 163 | 61 | active |
| Spa17 | 1 | 80 | 63.1 | inactive |
| Spa17 | 2 | 76.6 | 70.5 | inactive |
| Spa17 | 3 | 72.8 | 78.3 | inactive |
| Rufy2 | 1 | 63.1 | 72.2 | inactive |
| Rufy2 | 2 | 171 | 84.2 | active |
| Rufy2 | 3 | 68.5 | 76.9 | inactive |
| Psd | 1 | 77.1 | 62.6 | inactive |
| Psd | 2 | 76.6 | 92.5 | inactive |
| Psd | 3 | 73.4 | 45.9 | inactive |
| Pheta2 | 1 | 87 | 66.3 | inactive |
| Pheta2 | 2 | 98.5 | 69.6 | inactive |
| Pheta2 | 3 | 118 | 110 | inactive |
| Necab1 | 1 | 61.6 | 54.7 | inactive |
| Necab1 | 2 | 97.5 | 78.4 | inactive |
| Spata6l | 1 | 36.1 | 35.8 | inactive |
| Spata6l | 2 | 96.7 | 87.2 | inactive |
| Spata6l | 3 | 88 | 106 | inactive |
| Tef | 1 | 68.4 | 58 | inactive |
| Tef | 2 | 67 | 73.2 | inactive |
| Tef | 3 | 72.3 | 67.6 | inactive |
| Skor1 | 1 | 72.3 | 40.4 | inactive |
| Skor1 | 2 | 82.6 | 57.3 | inactive |
| Skor1 | 3 | 88.2 | 81.9 | inactive |
